Data taken from publication doi:10.1101/2025.08.19.671117.
Results are given in words; binding and its absence hold for the method and conditions named. Binding seen in cells or lysates may run through a third protein. Some binding calls cover weakened binding; strength is not graded here.

Amino acid sequences for entries named in this document (tags omitted). Residues count along the entry.
UniProt P25705, residues 44-553: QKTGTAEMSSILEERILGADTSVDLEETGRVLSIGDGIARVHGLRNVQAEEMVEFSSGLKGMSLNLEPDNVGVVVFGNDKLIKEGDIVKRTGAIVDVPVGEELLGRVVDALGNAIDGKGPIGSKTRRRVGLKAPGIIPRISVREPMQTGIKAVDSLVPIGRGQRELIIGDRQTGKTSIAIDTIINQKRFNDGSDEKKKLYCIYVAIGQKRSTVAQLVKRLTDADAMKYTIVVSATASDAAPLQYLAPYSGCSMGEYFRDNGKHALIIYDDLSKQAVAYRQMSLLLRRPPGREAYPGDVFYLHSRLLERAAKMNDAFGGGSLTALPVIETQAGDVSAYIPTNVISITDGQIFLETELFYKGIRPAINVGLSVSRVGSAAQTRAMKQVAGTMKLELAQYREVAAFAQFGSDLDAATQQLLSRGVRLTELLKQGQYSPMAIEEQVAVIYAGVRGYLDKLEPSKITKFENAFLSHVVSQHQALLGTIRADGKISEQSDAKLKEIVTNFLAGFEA
UniProt Q5VYX0, residues 18-342: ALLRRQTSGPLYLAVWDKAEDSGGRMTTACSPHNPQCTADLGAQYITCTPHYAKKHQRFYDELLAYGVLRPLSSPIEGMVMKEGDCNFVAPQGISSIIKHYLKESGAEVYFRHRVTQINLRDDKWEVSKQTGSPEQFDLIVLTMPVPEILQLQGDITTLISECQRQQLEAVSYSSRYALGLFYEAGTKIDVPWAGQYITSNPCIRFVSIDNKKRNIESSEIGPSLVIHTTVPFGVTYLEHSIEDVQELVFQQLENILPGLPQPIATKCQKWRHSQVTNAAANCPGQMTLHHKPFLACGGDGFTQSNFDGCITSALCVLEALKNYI

How the values were obtained:
Assay in all cases: proximity ligation
[1] = target: ATP synthase alpha subunit (ATP5α) (human (endogenous in HeLa)) (UniProt P25705)
[2] = target: T1, OSCP, a component of the peripheral stator of the ATP synthase (human (endogenous in HeLa)) (UniProt P48047)
T1 sequence: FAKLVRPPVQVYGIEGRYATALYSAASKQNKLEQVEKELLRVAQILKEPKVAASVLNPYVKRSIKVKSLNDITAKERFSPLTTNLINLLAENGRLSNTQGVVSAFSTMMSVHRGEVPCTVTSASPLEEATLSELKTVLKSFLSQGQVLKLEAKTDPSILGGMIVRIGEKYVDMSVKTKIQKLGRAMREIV

[3] = target: ATP synthase beta subunit (ATP5β) (human (endogenous in HeLa)) (UniProt P06576)

binding [1]: binds
binding [2]: no binding
binding [3]: binds
Substance: Renalase (human RNLS-1) (from UniProt Q5VYX0 18-342)
